Results taken from publication PMC11665560.
No constants are given. Whether binding was seen depends on the method and setting. In cells and extracts the contact can be indirect. These calls come from enrichment with a bait or labelling near it, and not all partners need be listed.

Sequences of proteins named here, by UniProt entry; tags and fusion partners are left off.
UniProt P30086: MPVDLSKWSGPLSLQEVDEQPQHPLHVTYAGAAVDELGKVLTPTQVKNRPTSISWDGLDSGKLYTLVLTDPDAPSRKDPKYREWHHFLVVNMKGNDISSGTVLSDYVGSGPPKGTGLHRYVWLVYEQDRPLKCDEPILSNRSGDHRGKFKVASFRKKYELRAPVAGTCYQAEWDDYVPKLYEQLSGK
UniProt P30153: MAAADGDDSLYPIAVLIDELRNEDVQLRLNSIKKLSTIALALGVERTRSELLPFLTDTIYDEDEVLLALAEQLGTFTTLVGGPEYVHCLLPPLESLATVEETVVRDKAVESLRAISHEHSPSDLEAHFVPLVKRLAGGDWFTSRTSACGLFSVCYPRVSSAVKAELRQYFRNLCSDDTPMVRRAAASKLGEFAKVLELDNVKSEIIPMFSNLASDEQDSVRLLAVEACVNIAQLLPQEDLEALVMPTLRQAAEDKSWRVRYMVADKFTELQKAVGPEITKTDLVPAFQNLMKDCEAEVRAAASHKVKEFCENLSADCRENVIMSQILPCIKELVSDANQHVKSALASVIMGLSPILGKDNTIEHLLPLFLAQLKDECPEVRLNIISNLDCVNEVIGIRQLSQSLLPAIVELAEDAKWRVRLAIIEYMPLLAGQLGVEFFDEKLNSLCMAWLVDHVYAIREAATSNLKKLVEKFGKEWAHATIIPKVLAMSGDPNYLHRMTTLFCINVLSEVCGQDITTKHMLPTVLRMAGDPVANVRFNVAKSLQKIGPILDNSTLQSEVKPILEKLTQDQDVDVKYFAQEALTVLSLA

Biological target: GFP-PEBP1 (human) (UniProt P30086)
Assay: affinity purification with mass spectrometry; proteins associated with PEBP1 in GFP-PEBP1-overexpressing cells; 201 candidate proteins

- binding: binds
Substance: PPP2R1A, a subunit of phosphatase PP2A (from UniProt P30153 1-589)
